Data: PubChem BioAssay AID504444 (National Center for Advancing Translational Sciences (NCATS), 2011)
In all, about 360,000 compounds went through this assay and about 7,500 (2.1%) were called active. Inconclusive means that the source gave no clear call. Such entries were picked first, then a sample of the others. Calls follow the shape of the dose curve; as a rule, active = well fitted inhibition curve with a large enough effect; inconclusive = small, poorly fitted or top-dose-only effect, or effect the other way; inactive = flat fitted curve, though single readings scatter. A potency beside an inconclusive call is a rough fit, not a confirmed value.

Assay: Nrf2 qHTS screen for inhibitors; also: nearly all actives have a fitted effect of over 60% in size
Conditions: A549 ARE-Fluc reporter, luciferase luminescence, 18-24 h; series mostly up to 46 µM
Outline: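 Concentration-response testing used A549 ARE_Fluc cells at 5000 cells/well. Following an 18-24 h compound incubation, viability was read by fluorescence (Ex 405/Em 525) and luciferase output by luminescence.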
Potency is read from the fitted curve at half-maximal effect.

Compound | Potency
O=C(Nc1cccc2ccccc12)c1ccccc1 | inconclusive: 18.4 µM [activator, partial curve]
Cc1ccc(/C=C/C(=O)OCC(=O)N(CC(C)C)c2c(N)n(Cc3ccccc3)c(=O)[nH]c2=O)o1 | inactive
C#Cc1cccc(-n2nnc(C(=O)OC)c2-c2ccccc2)c1 | inconclusive: 29.1 µM [falling, single point]
Cc1ccc(-c2csc(NC(=O)c3c(C)noc3C)n2)cc1C | inconclusive: 18.4 µM [falling, partial curve, poor fit]
O=C(NCc1ccc(F)cc1)c1ccc2c(c1)nnn2C1CCCC1 | inconclusive: 29.1 µM [activator, partial curve]
CCOc1ccc(C(C)=O)cc1CSc1nnnn1-c1ccc(O)cc1 | inconclusive: 23.1 µM [falling, single point]
COc1ccc(CCC(=O)N2CCN(S(=O)(=O)c3ccc4ccccc4c3)CC2)cc1 | inconclusive: 7.31 µM [falling, partial curve]
O=C(Nc1ccc(S(=O)(=O)NCc2ccccc2)cc1)c1ccc(Br)o1 | inconclusive: 23.1 µM [falling, single point]
CN(Cc1cccs1)C(=O)CSc1nc2ccccc2[nH]1 | inconclusive: 7.31 µM [activator, partial curve]
Cc1cc(C(F)(F)F)nc(-n2cc(-c3cccc(N)c3)nn2)n1 | inconclusive: 25.9 µM [falling, partial curve, poor fit]
Cc1c(NC(=O)c2cc(-c3ccc(Cl)cc3)on2)c(=O)n(-c2ccccc2)n1C | inconclusive: 29.1 µM [falling, single point]
Cc1ccc(C(=O)N2CCCC(N(C)Cc3ccccc3)C2)s1 (configuration not stated) | inactive
CC(Sc1nc(NCc2ccccc2)nc(N2CCOCC2)n1)C(=O)Nc1ccccc1 (configuration not stated) | inconclusive: 4.11 µM [falling, partial curve, poor fit]
Cc1nn(-c2ccccn2)c2c1C(c1ccccc1Cl)C1=C(N2)c2ccccc2C1=O (configuration not stated) | inactive
COc1ccc(-c2c3c(=O)n(C)c(=O)n(C)c3cn2Cc2cccnc2)cc1 | inconclusive: 23.1 µM [activator, partial curve]
Cc1ccc(CNC(=O)c2cc(-c3ccccc3C)nn2CC2CC(c3cccnc3)=NO2)cc1 (configuration not stated) | inactive
Cc1ccc(NC(=O)c2ccccc2NC(=O)CCC(=O)O)cc1 | inconclusive: 29.1 µM [activator, single point]
Clc1ccc(-n2nnc(-c3nccs3)n2)cc1Cl | inconclusive: 4.11 µM [activator, partial curve]
CCOc1ccc(NS(=O)(=O)c2ccc(NC(=S)NC(=O)C(C)C)cc2)cc1 | inconclusive: 10.3 µM [falling, partial curve, poor fit]
Oc1c(CN2CCc3ccccc3C2)cc(Cl)c2cccnc12 | inactive
Cc1ccc(P(=O)(CSC(=N)N)c2ccc(C)cc2)cc1 | inconclusive: 16.4 µM [activator, partial curve, poor fit]
Cc1nc2nc(-c3ccccc3)nn2c(C)c1Cl | inconclusive: 4.61 µM [activator, full curve]
CC(C)N(Cc1nc(-c2ccc(Cl)cc2)no1)C(=O)/C=C/c1ccccc1 | inconclusive: 25.9 µM [falling, single point]

Compound | Potency
COc1ccc(C)cc1N/C(N)=N/c1nc(C)cc(C)n1 | inconclusive: 25.9 µM [falling, partial curve, poor fit]
COc1ccc(C2C3=C(CCCC3=O)Nc3nc(SCc4ccccc4)nn32)cc1OC (configuration not stated) | inconclusive: 29.1 µM [falling, single point]
CC1Cc2ccccc2N1C(=O)COc1nc2ccccc2nc1N1CCOCC1 (configuration not stated) | inactive
Cc1ccc(NC(=O)c2ccc(NC(=O)c3ccccc3)cc2)cc1C | inconclusive: 10.3 µM [falling, partial curve]
Cc1nn2c(nc(N3CCOCC3)c3ccccc32)c1C=C(C#N)C#N | inactive
O=C(COc1ccccc1O)Nc1ccccc1Cl | inconclusive: 20.6 µM [activator, single point]
O=C(N/N=C\c1ccc([N+](=O)[O-])s1)c1cncc(Br)c1 | active: 16.4 µM
CC(C)(C)NC(=O)NC(=O)COC(=O)c1cccc(NS(=O)(=O)c2ccc(F)c(F)c2)c1 | inconclusive: 16.4 µM [falling, single point]
COc1cccc(/C=N/NC(=O)c2nnn(-c3nonc3N)c2C(C)C)c1OCc1ccc(F)cc1 | inconclusive: 16.4 µM [falling, single point]
Cn1c(=O)c2c(nc(N/N=C/c3ccc(OC(=O)c4ccco4)cc3)n2Cc2ccccc2)n(C)c1=O | active: 16.4 µM
NS(=O)(=O)c1cccc(NC(=O)c2ccc(S(=O)(=O)N3CCCCCC3)cc2)c1 | inconclusive: 29.1 µM [falling, single point]
C/C(=N\Nc1ccc(Cl)c(C(=O)O)c1)c1ccc(Br)s1 | inactive
O=C(COc1ccc([N+](=O)[O-])cc1)Nc1ccc2c(c1)CCC2 | inactive
COc1ccccc1NC(=O)N1CCC(NC(=O)C(Cc2ccccc2F)NC(C)=O)CC1 (configuration not stated) | inconclusive: 0.0052 µM [falling, full curve]
Cc1nnc(SCc2nc3scc(-c4ccccc4)c3c(=O)[nH]2)s1 | inconclusive: 4.61 µM [falling, partial curve, poor fit]
CC(=O)Nc1ccc2nc(NC(=O)c3cccs3)sc2c1 | inconclusive: 2.06 µM [activator, full curve]
CCc1ccc(Nc2cc(=O)n(C3CCCCC3)c(=O)[nH]2)cc1 | inconclusive: 29.1 µM [falling, single point]
CCn1c(C(=O)NCc2cc(Br)ccc2OC)cc2oc3ccccc3c21 | inconclusive: 29.1 µM [activator, single point]
Cc1ccsc1C(=O)N1CCCC(CCC(=O)NCc2ccccc2F)C1 (configuration not stated) | inactive
CCN(C(=O)Cn1cnc2onc(-c3ccc(F)cc3)c2c1=O)c1cc(C)ccc1C | inactive
O=C(C1CCCCC1)N1CCN(c2nc(-c3ccc(F)cc3)cs2)CC1 | inconclusive: 25.9 µM [falling, single point]
O=C(COc1ccc(Cl)cc1)Nc1ccc2oc(-c3ccncc3)nc2c1 | inactive
COc1ccc(-c2onc(C)c2-c2cnn(-c3ccccc3)c2)c(O)c1C | inactive

Reformatted tab-delimited: part of the list above
Compound	Potency
CC(C)(C)NC(=O)NC(=O)COC(=O)c1cccc(NS(=O)(=O)c2ccc(F)c(F)c2)c1	inconclusive: 16.4 µM [falling, single point]
COc1cccc(/C=N/NC(=O)c2nnn(-c3nonc3N)c2C(C)C)c1OCc1ccc(F)cc1	inconclusive: 16.4 µM [falling, single point]
Cn1c(=O)c2c(nc(N/N=C/c3ccc(OC(=O)c4ccco4)cc3)n2Cc2ccccc2)n(C)c1=O	active: 16.4 µM

(cont.)

Compound | Potency
CC(=O)Nc1c(Br)cc2c(c1Br)Cc1cc(Br)ccc1-2 | inconclusive: 0.326 µM [falling, full curve, poor fit]
Cc1ccc(-c2csc(=Nc3cccnc3)n2CCCn2ccnc2)cc1C | active: 18.4 µM
Cc1ccc(O)c(C2=NNC(O)(C(F)(F)F)C2)c1 (configuration not stated) | inconclusive: 14.6 µM [falling, single point]
CCc1nnc(NC(=O)CCC(=O)N2CCN(Cc3ccc(F)cc3)CC2)s1 | inconclusive: 25.9 µM [falling, single point]
CCOC(=O)N1CCN(C(=O)C2CCCN(S(=O)(=O)c3ccc(OCC)cc3)C2)CC1 (configuration not stated) | inconclusive: 10.3 µM [falling, partial curve, poor fit]
CCCNC(=O)c1sc2c(c1C(=O)Nc1ccccn1)CCCC2 | inconclusive: 11.6 µM [falling, partial curve, poor fit]
O=C(Nc1ccccc1F)C1COc2ccccc2O1 (configuration not stated) | inconclusive: 16.4 µM [activator, partial curve]
O=C(CSc1ccc(-c2cccs2)nn1)c1cccs1 | inconclusive: 14.6 µM [activator, partial curve]
O=C(OCC(=O)N1CCc2ccccc21)c1ccccc1 | inconclusive: 0.651 µM [activator, partial curve]
CC(=O)Nc1nc(-c2ccccc2)nc(-c2ccccc2OC(C)=O)n1 | active: 13 µM
COC(=O)c1c(C)[nH]c(C(=O)C(C)OC(=O)c2cc(C)oc2C)c1C (configuration not stated) | inconclusive: 29.1 µM [falling, single point]
Cc1ccc(S(=O)(=O)N2CC(O)CC2C(=O)NCc2ccc3c(c2)OCO3)cc1 (configuration not stated) | inconclusive: 25.9 µM [activator, partial curve, poor fit]
O=C(Nc1ccn([C@H]2CC[C@@H](CO)O2)c(=O)n1)c1ccccc1 | inconclusive: 32.6 µM [activator, single point]
O=C(Cn1nnc2ccccc2c1=O)Nc1ccc2c(c1)CCC2 | inconclusive: 11.6 µM [activator, partial curve, poor fit]
Cc1ccc(NC(=O)c2ccccc2Cl)c(Cl)c1 | inconclusive: 16.4 µM [activator, single point]
Cc1ccc(NC(=O)c2cnc(N3CCN(c4ccccn4)CC3)c3ccccc23)c(Br)c1 | active: 14.6 µM
Cc1onc(-c2ccccc2)c1C(=O)Nc1ccccc1NC(=O)c1c(-c2ccccc2)noc1C | inactive
O=C(O)CCC(=O)Nc1cccc(-c2csc(-c3ccccc3)n2)c1 | inconclusive: 7.31 µM [falling, partial curve]
Cc1ccc(NC(=O)c2ccccc2F)cc1S(=O)(=O)N1CCCCCC1 | active: 16.4 µM
O=C(c1cccc(NS(=O)(=O)c2ccc(F)c(F)c2)c1)N1CCN(C(c2ccccc2)c2ccccc2)CC1 | inconclusive: 29.1 µM [falling, single point]
CC(=O)OCC(=O)[C@@]1(O)CC[C@H]2[C@@H]3CCC4=CC(=O)C=C[C@]4(C)[C@@]3(F)[C@@H](O)C[C@@]21C | active: 0.0291 µM

3 of these compounds, set out differently:
Compound	Potency
O=C(OCC(=O)N1CCc2ccccc21)c1ccccc1	inconclusive: 0.651 µM [activator, partial curve]
CC(=O)Nc1nc(-c2ccccc2)nc(-c2ccccc2OC(C)=O)n1	active: 13 µM
COC(=O)c1c(C)[nH]c(C(=O)C(C)OC(=O)c2cc(C)oc2C)c1C (configuration not stated)	inconclusive: 29.1 µM [falling, single point]
